In PMC7084798:
Results are given in words; binding and its absence hold for the method and conditions named. Binding seen in cells or lysates may run through a third protein. Binding calls can cover weak binding; strength is not graded here.

Target: T1, Bombyx mori Sericin1 (B. mori (endogenous in the middle silk gland)) (UniProt P07856)
T1 sequence: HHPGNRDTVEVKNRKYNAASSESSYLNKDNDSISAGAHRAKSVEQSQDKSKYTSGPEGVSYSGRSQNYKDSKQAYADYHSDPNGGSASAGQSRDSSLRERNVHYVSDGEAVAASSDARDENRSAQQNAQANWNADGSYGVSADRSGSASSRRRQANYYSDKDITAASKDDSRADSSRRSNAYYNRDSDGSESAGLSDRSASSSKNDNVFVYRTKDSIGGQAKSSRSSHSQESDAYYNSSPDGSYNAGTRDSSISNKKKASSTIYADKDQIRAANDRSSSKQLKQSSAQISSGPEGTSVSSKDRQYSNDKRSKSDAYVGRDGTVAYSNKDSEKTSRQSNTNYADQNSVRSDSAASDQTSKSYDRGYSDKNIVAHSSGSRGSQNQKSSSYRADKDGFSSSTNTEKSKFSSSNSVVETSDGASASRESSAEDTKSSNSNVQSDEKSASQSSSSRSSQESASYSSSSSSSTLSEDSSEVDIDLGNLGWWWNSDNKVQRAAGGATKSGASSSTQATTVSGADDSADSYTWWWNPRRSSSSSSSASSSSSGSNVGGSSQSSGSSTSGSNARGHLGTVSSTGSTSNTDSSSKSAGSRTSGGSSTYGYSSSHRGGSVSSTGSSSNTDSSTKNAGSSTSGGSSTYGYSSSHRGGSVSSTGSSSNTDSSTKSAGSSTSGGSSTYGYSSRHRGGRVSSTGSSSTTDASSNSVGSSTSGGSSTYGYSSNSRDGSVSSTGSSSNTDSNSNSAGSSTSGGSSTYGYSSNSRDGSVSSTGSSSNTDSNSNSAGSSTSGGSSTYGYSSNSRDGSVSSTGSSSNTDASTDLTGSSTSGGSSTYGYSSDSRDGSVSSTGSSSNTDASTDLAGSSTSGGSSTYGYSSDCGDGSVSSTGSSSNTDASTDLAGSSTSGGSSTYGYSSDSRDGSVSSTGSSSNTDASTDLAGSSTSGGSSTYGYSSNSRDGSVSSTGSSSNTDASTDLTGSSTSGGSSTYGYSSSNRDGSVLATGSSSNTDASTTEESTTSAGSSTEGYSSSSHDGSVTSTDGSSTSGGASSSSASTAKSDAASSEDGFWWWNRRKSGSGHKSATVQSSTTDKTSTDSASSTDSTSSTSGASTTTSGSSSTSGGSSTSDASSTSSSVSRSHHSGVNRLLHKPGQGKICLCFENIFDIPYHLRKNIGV
Assay: co-IP; 100 ug of proteins extracted from the MSG incubated with anti-Ser1 or anti-BmOsi9a antibody for 1 h at 4 °C; Capturem Protein A columns; rabbit IgG as negative control; eluates blotted with the anti-BmOsi9a antibody

- binding: binds
Substance: Bombyx mori Osiris9a (B. mori)
